{"sequences": {"note": "By UniProt entry, the sequences of proteins in these tests, tags left out.", "UniProt Q60598": "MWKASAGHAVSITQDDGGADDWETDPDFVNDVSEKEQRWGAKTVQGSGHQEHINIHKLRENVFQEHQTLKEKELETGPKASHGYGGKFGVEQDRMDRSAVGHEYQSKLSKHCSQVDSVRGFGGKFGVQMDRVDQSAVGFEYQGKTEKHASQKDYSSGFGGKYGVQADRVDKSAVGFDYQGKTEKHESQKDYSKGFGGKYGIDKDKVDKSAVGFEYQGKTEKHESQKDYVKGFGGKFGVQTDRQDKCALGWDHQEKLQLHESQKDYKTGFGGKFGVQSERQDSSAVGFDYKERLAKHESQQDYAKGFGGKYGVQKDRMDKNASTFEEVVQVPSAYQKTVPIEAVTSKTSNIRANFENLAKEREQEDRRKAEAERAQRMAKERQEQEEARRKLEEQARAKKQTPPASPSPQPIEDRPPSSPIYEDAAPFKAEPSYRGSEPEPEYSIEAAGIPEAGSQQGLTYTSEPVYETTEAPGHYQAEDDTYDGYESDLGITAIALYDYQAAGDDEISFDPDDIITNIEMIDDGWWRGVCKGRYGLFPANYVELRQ"}, "source": "paper PMC11737055", "target": "cortactin, endogenous (mouse (endogenous in primary hippocampal neurons)) (UniProt Q60598)", "experiment": "co-IP; synaptosome extracts of DIV14 mouse primary hippocampal neurons immunoprecipitated with anti-cortactin, Western blot; neurons under mock, DHPG-LTD, DHPG-LTD + ionomycin or DHPG-LTD + EGTA; also FMRP depletion (Supplementary Fig. S6D) and CK2 inhibition (data not shown)", "note": "These are yes or no findings as the source states them, for the method shown. In cells and extracts the contact can be indirect. Some binding calls cover weakened binding; strength is not graded here.", "data": [{"binder": "drebrin, endogenous (protein, UniProt Q9QXS6 1-706) MAGVSFSGHRLELLAAYEEVIREESAADWALYTYEDGSDDLKLAASGEGGLQELSGHFENQKVMYGFCSVKDSQAALPKYVLINWVGEDVPDARKCACASHVAKVAEFFQGVDVIVNASSVEDIDAGAIGQRLSNGLARLSSPVLHRLRLREDENAEPVGTTYQKTDAAVEMKRINREQFWEQAKKEEELRKEEERKKALDARLRFEQERMEQERQEQEERERRYREREQQIEEHRRKQQSLEAEEAKRRLKEQSIFGDQRDEEEESQMKKSESEVEEAAAIIAQRPDNPREFFRQQERVASASGGSCDAPAPAPFNHRPGRPYCPFIKASDSGPSSSSSSSSSPPRTPFPYITCHRTPNLSSSLPCSHLDSHRRMAPTPIPTRSPSDSSTASTPIAEQIERALDEVTSSQPPPPPPPPPPTQEAQETTPSLDEELSKEAKVTAAPEVWAGCAAEPPQAQEPPLLQSSPLEDSMCTESPEQAALAAPAEPAASVTSVADVHAADTIETTTATTDTTIANNVTPAAASLIDLWPGNGEEASTLQAEPRVPTPPSGAEASLAEVPLLNEAAQEPLPPVGEGCANLLNFDELPEPPATFCDPEEEVGETLAASQVLTMPSALEEVDQVLEQELEPEPHLLTNGETTQKEGTQASEGYFSQSQEEEFAQSEEPCAKVPPPVFYNKPPEIDITCWDADPVPEEEEGFEGGD", "values": [{"measurement": "binding", "value": "binds"}]}]}
